The text below walks through data of PubChem BioAssay AID210 (DTP/NCI, 2004).

In this experiment the test system is CD2F1 mice, ip Colon 26 adenocarcinoma, median survival T/C. In words: NCI In Vivo Anticancer Drug Screen. Data for tumor model Colon 26 Adenocarcinoma (intraperitoneal) in CD2F1 (CDF1) mice. As to conditions: T/C endpoint: median survival time, higher T/C = longer survival. Here is the method:
The antitumor activity of compounds was measured in mice bearing transplantable tumors. Survival or tumor size were measured and the results are expressed as the measurement made in the treated group (T) divided by the measurement made in the vehicle treated control group (C). The tumor model used in this assay is Colon 26 Adenocarcinoma (intraperitoneal) in CD2F1 (CDF1) mice

The list does not hold the whole screen: it gathers some chemical classes. Not every dose and run of a compound is shown. T/C gives the treated animals as a percentage of the vehicle group. Where survival is the endpoint, this PubChem deposit counts one and a half times the control or more as active, and values a quarter to a half above the control carry no call in these data; other NCI protocols may use other cut-offs. Schedule codes are those of the source, read here as Q, the interval in days (D) or hours (H), X, the number of doses. Some entries show no survivor count and are marked so; the dose need not have been tolerated.

On to `CC1=CC2OC3CC4OC(=O)/C=C/C=C/C(C(C)O)OCC(O)C(C)CC(=O)OCC2(CC1O)C4(C)C31CO1` (stereo not drawn), for which the T/C is, setting by setting: (dose: 648.0 micrograms/kg/injection, schedule: Q04DX003 (ip), vehicle: other) 106 % of control [survivor count not shown]; (dose: 1080.0 micrograms/kg/injection, schedule: Q04DX003 (ip), vehicle: other) 95 % of control [survivor count not shown].
Regarding `C[C@@H](O)[C@H]1/C=C/C=C\C(=O)O[C@@H]2C[C@H]3O[C@@H]4[C@@H]5OC5(C)CCC4(COC(=O)[C@H]4O[C@]4(C)[C@@H](O)CO1)[C@]2(C)[C@]31CO1` (stereo partly drawn), the T/C by setting is: (dose: 1.94 mg/kg/injection, schedule: Q04DX003 (sc), vehicle: other) 102 % of control [survivor count not shown]; (dose: 3.24 mg/kg/injection, schedule: Q04DX003 (ip), vehicle: other) 123 % of control [survivor count not shown]; (dose: 3.24 mg/kg/injection, schedule: Q04DX003 (sc), vehicle: other) 96 % of control [survivor count not shown]; (dose: 5.4 mg/kg/injection, schedule: Q04DX003 (ip), vehicle: other) 123 % of control [survivor count not shown]; (dose: 5.4 mg/kg/injection, schedule: Q04DX003 (sc), vehicle: other) 98 % of control [survivor count not shown]; (dose: 9.0 mg/kg/injection, schedule: Q04DX003 (ip), vehicle: other) 118 % of control [survivor count not shown].
`CC(=O)OC[C@]12C[C@H](OC(=O)CC(C)C)C(C)=C[C@H]1OC1[C@H](O)[C@@H](OC(C)=O)[C@@]2(C)[C@@]12CO2`: the T/C is 100 % of control [survivor count not shown] (dose: 1.3 mg/kg/injection, schedule: Q04DX003 (ip), vehicle: other); 102 % of control [survivor count not shown] (dose: 2.16 mg/kg/injection, schedule: Q04DX003 (ip), vehicle: other); 101 % of control [survivor count not shown] (dose: 3.6 mg/kg/injection, schedule: Q04DX003 (ip), vehicle: other); 100 % of control [survivor count not shown] (dose: 648.0 micrograms/kg/injection, schedule: Q04DX003 (sc), vehicle: saline + alcohol); 100 % of control [survivor count not shown] (dose: 1080.0 micrograms/kg/injection, schedule: Q04DX003 (sc), vehicle: saline + alcohol); 102 % of control [survivor count not shown] (dose: 1800.0 micrograms/kg/injection, schedule: Q04DX003 (sc), vehicle: saline + alcohol).
In the case of `CC(=O)OCC12CCC(C)=CC1OC1C(O)C(OC(C)=O)C2(C)C12CO2` (stereo not drawn), the T/C (dose: 0.25 mg/kg/injection, schedule: Q04DX003 (ip), vehicle: saline) is 115 % of control [survivor count not shown]; the T/C (dose: 0.5 mg/kg/injection, schedule: Q04DX003 (ip), vehicle: saline) was 106 % of control [survivor count not shown]; the T/C (dose: 1.0 mg/kg/injection, schedule: Q04DX003 (ip), vehicle: saline) was 99 % of control [survivor count not shown]; the T/C (dose: 2.0 mg/kg/injection, schedule: Q04DX003 (ip), vehicle: saline) is 104 % of control [survivor count not shown]; the T/C (dose: 2.59 mg/kg/injection, schedule: Q04DX003 (sc), vehicle: saline + alcohol) is 105 % of control [survivor count not shown]; the T/C (dose: 4.0 mg/kg/injection, schedule: Q04DX003 (ip), vehicle: saline) was 135 % of control [survivor count not shown]. For the same compound, the T/C was 100 % of control [survivor count not shown] (dose: 4.32 mg/kg/injection, schedule: Q04DX003 (ip), vehicle: other); 100 % of control [survivor count not shown] (dose: 4.32 mg/kg/injection, schedule: Q04DX003 (sc), vehicle: saline + alcohol); 95 % of control [survivor count not shown] (dose: 7.2 mg/kg/injection, schedule: Q04DX003 (ip), vehicle: other).
For the compound `CC(=O)O[C@@H]1[C@@H](O)[C@H]2O[C@@H]3C=C(C)C(=O)[C@@H](O)[C@]3(CO)[C@]1(C)[C@]21CO1`, the T/C is 97 % of control [survivor count not shown] (dose: 0.4 mg/kg/injection, schedule: Q04DX003 (ip), vehicle: saline); 105 % of control [survivor count not shown] (dose: 0.8 mg/kg/injection, schedule: Q04DX003 (ip), vehicle: saline); 120 % of control [survivor count not shown] (dose: 1.6 mg/kg/injection, schedule: Q04DX003 (ip), vehicle: saline); 120 % of control [survivor count not shown] (dose: 3.2 mg/kg/injection, schedule: Q04DX003 (ip), vehicle: saline).
On to `CC(=O)OCC12CC(O)C(C)=CC1OC1C(O)C(OC(C)=O)C2(C)C12CO2` (stereo not drawn), for which the T/C reads like this: (dose: 0.31 mg/kg/injection, schedule: Q04DX003 (ip), vehicle: saline) 110 % of control [survivor count not shown]; (dose: 0.62 mg/kg/injection, schedule: Q04DX003 (ip), vehicle: saline) 109 % of control [survivor count not shown]; (dose: 1.25 mg/kg/injection, schedule: Q04DX003 (ip), vehicle: saline) 112 % of control [survivor count not shown]; (dose: 2.5 mg/kg/injection, schedule: Q04DX003 (ip), vehicle: saline) 117 % of control [survivor count not shown]; (dose: 5.0 mg/kg/injection, schedule: Q04DX003 (ip), vehicle: saline) 119 % of control [survivor count not shown]; (dose: 10.0 mg/kg/injection, schedule: Q04DX003 (ip), vehicle: saline) 133 % of control [survivor count not shown].
